# According to article PMC3247736:
# For some assays here: For at least one entry, the source does not settle the construct or the ends of the probe.
# Columns and labels:
# lysozyme = assay: QCM; conditions: 500 mg/L lysozyme vs 100 ug/L IgE; 5'-biotin; 8.1 mM Na2HPO4, 1.1 mM KH2PO4, 1 mM MgCl2, 2.7 mM KCl, 138 mM NaCl, pH 7.4, 37 C; BSA-blocked avidin-coated gold crystal; commercial protein; label: biotin (5'), immobilized on avidin; single-stranded DNA
# [1] = molecular target: HSA (human serum albumin) (human) (UniProt P02768); assay: QCM; conditions: 500 mg/L HSA vs 100 ug/L IgE; 5'-biotin; 8.1 mM Na2HPO4, 1.1 mM KH2PO4, 1 mM MgCl2, 2.7 mM KCl, 138 mM NaCl, pH 7.4, 37 C; BSA-blocked avidin-coated gold crystal; commercial protein; label: biotin (5'), immobilized on avidin; single-stranded DNA
sequence,measurement,setting,value
GGGGCACGTTTATCCGTCCCTCCTAGTGGCGTGCCCC [D17.4 anti-IgE aptamer],binding signal (% of IgE response),lysozyme,< 5
same,binding signal (% of IgE response),[1],< 5
